Measured values: PubChem BioAssay AID248 (DTP/NCI, 2004)
The list is a part of this screen's results and no random one: it gathers tests that were run many times, whatever their T/C, doses with no T/C, and many T/C values between a quarter and a half above the control. Further doses and runs are listed elsewhere. T/C is the treated group as % of the vehicle group. Some entries give survivors of the animals treated and no T/C: the source holds a T/C of zero for them, seemingly a mark for toxic or unscored doses. Some survivor counts are full or nearly so, which does not show that the dose was tolerated: survival well below the control is almost never listed, so the zero probably covers shortened survival too. Counts of survivors are from the toxicity check (mostly the fifth day) where no day follows; animals may have died later. Schedules are NCI's codes, read here as Q, the interval in days (D) or hours (H), X, the number of doses. For survival time, this PubChem deposit counts one and a half times the control or more as active, and values a quarter to a half above the control carry no call in these data; other NCI protocols may use other cut-offs.

System: L1210 leukemia ip in BDF1 mice, survival T/C
Assay: NCI In Vivo Anticancer Drug Screen. Data for tumor model L1210 Leukemia (intraperitoneal) in B6D2F1 (BDF1) mice
Conditions: higher T/C = longer survival
[1] = T/C endpoint: mean survival time, dose: 50.0 mg/kg/injection, schedule: Q01DX009 (ip), vehicle: saline with Tween-80
[2] = T/C endpoint: mean survival time, dose: 400.0 mg/kg/injection, schedule: Q01DX009 (ip), vehicle: acetone
[3] = T/C endpoint: mean survival time, dose: 200.0 mg/kg/injection, schedule: Q01DX001 (ip), vehicle: carboxymethylcellulose (CMC)
[4] = T/C endpoint: mean survival time, dose: 400.0 mg/kg/injection, schedule: Q01DX001 (ip), vehicle: carboxymethylcellulose (CMC)
[5] = T/C endpoint: mean survival time, dose: 400.0 mg/kg/injection, schedule: Q04DX003 (ip), vehicle: saline with Tween-80

`COC(=O)C(Br)c1ccc([N+](=O)[O-])cc1` (stereo not given) was tested, and the survivor count [1] was 2 of 6, the survivor count (T/C endpoint: mean survival time, dose: 100.0 mg/kg/injection, schedule: Q04DX003 (ip), vehicle: saline) was 5 of 6 and the survivor count (T/C endpoint: mean survival time, dose: 200.0 mg/kg/injection, schedule: Q04DX003 (ip), vehicle: saline) was 0 of 6. The survivor count (T/C endpoint: mean survival time, dose: 400.0 mg/kg/injection, schedule: Q04DX003 (ip), vehicle: saline) was 0 of 6.
In the case of `O=C(Nc1ccccc1)Oc1ccc(OC(=O)Nc2ccccc2)c(Cl)c1`, the survivor count (T/C endpoint: mean survival time, dose: 400.0 mg/kg/injection, schedule: Q04DX002 (ip), vehicle: saline + alcohol) is reported as 3 of 3.
With `CSC(N(C)c1ccccc1)=[N+](C)c1ccccc1` the survivor count (T/C endpoint: mean survival time, dose: 200.0 mg/kg/injection, schedule: Q01DX001 (ip), vehicle: saline) was 3 of 6 and the survivor count (T/C endpoint: mean survival time, dose: 400.0 mg/kg/injection, schedule: Q01DX001 (ip), vehicle: saline) was 0 of 6.
With `Cc1cc(P(=O)(O)O)ccc1Cl` the survivor count [2] was 2 of 6.
In the case of `CCCCCCCCCCCCCCCCCCNC1=C(Cl)C(=O)C(NCCCCCCCCCCCCCCCCCC)=C(Cl)C1=O`, the survivor count (T/C endpoint: mean survival time, dose: 100.0 mg/kg/injection, schedule: Q01DX001 (ip), vehicle: carboxymethylcellulose (CMC)) is reported as 2 of 4, the survivor count [3] is reported as 0 of 4 and the survivor count [4] is reported as 0 of 4.
`CCOC(=O)C(c1ccccc1)N(c1ccccc1)S(=O)(=O)c1ccc(C)cc1` (stereo not given) was tested, and the survivor count (T/C endpoint: mean survival time, dose: 50.0 mg/kg/injection, schedule: Q01DX001 (ip), vehicle: other) was 0 of 4.
For `Cn1[nH]nnc1=S`, the survivor count [5] was 0 of 4.
In the case of `O=c1n[n+]([O-])ccn1C1OC(CO)C(O)C1O` (stereo not given), the T/C (T/C endpoint: mean survival time, dose: 300.0 mg/kg/injection, schedule: Q01DX009 (ip), vehicle: saline) is reported as 142 % of control, the T/C (T/C endpoint: mean survival time, dose: 450.0 mg/kg/injection, schedule: Q01DX009 (ip), vehicle: saline) is reported as 128 % of control and the survivor count (T/C endpoint: mean survival time, dose: 600.0 mg/kg/injection, schedule: Q01DX009 (ip), vehicle: saline) is reported as 10 of 10. The survivor count (T/C endpoint: median survival time, dose: 500.0 mg/kg/injection, schedule: Q01DX009 (ip), vehicle: saline) was 7 of 10.
In the case of `CC[CH2][Sn]([CH2]CC)([CH2]CC)[CH2]CC`, the survivor count [3] is reported as 3 of 4 and the survivor count [4] is reported as 0 of 4.
With `CC(=O)Nc1cc([N+](=O)[O-])ccc1C` the survivor count (T/C endpoint: mean survival time, dose: 400.0 mg/kg/injection, schedule: Q01DX009 (ip), vehicle: Klucel (hydroxypropylcellulose) (HPC)) was 0 of 6.
In the case of `Cc1cc(=O)c(Cl)cc(=O)[nH]1`, the survivor count (T/C endpoint: mean survival time, dose: 100.0 mg/kg/injection, schedule: Q01DX001 (ip), vehicle: saline with Tween-80) is reported as 1 of 3, the survivor count (T/C endpoint: mean survival time, dose: 200.0 mg/kg/injection, schedule: Q01DX001 (ip), vehicle: saline with Tween-80) is reported as 0 of 3 and the survivor count (T/C endpoint: mean survival time, dose: 400.0 mg/kg/injection, schedule: Q01DX001 (ip), vehicle: saline with Tween-80) is reported as 0 of 3.
In the case of `Cc1cc(SC#N)ccc1O`, the survivor count (T/C endpoint: mean survival time, dose: 100.0 mg/kg/injection, schedule: Q04DX002 (ip), vehicle: other) is reported as 0 of 3, the survivor count (T/C endpoint: mean survival time, dose: 200.0 mg/kg/injection, schedule: Q04DX002 (ip), vehicle: other) is reported as 0 of 3 and the survivor count (T/C endpoint: mean survival time, dose: 400.0 mg/kg/injection, schedule: Q04DX002 (ip), vehicle: other) is reported as 0 of 3.
For `Cc1cc(=O)oc2c(OS(C)(=O)=O)c(OS(C)(=O)=O)ccc12`, the survivor count (T/C endpoint: mean survival time, dose: 12.5 mg/kg/injection, schedule: Q01DX009 (ip), vehicle: Klucel (hydroxypropylcellulose) (HPC)) was 3 of 3.
With `CC(=O)[O][Hg][c]1cc[c]([Hg][O]C(C)=O)s1` the survivor count (T/C endpoint: mean survival time, dose: 12.0 mg/kg/injection, schedule: Q01DX009 (ip), vehicle: Klucel (hydroxypropylcellulose) (HPC)) was 6 of 6, the survivor count (T/C endpoint: mean survival time, dose: 25.0 mg/kg/injection, schedule: Q04DX003 (ip), vehicle: Klucel (hydroxypropylcellulose) (HPC)) was 3 of 6 and the survivor count (T/C endpoint: mean survival time, dose: 50.0 mg/kg/injection, schedule: Q04DX003 (ip), vehicle: Klucel (hydroxypropylcellulose) (HPC)) was 1 of 6. The survivor count (T/C endpoint: mean survival time, dose: 100.0 mg/kg/injection, schedule: Q04DX003 (ip), vehicle: Klucel (hydroxypropylcellulose) (HPC)) was 0 of 6, the survivor count (T/C endpoint: mean survival time, dose: 200.0 mg/kg/injection, schedule: Q04DX003 (ip), vehicle: Klucel (hydroxypropylcellulose) (HPC)) was 0 of 6 and the survivor count (T/C endpoint: mean survival time, dose: 400.0 mg/kg/injection, schedule: Q04DX003 (ip), vehicle: Klucel (hydroxypropylcellulose) (HPC)) was 2 of 6.
In the case of `O=c1n(-c2ccccc2)c(=O)n2n1C1/C=C\C=C/C2C2CCC21` (stereo not given), the survivor count [1] is reported as 4 of 4, the survivor count (T/C endpoint: mean survival time, dose: 100.0 mg/kg/injection, schedule: Q04DX003 (ip), vehicle: saline with Tween-80) is reported as 6 of 6 and the survivor count (T/C endpoint: mean survival time, dose: 200.0 mg/kg/injection, schedule: Q04DX003 (ip), vehicle: saline with Tween-80) is reported as 1 of 6. For the same molecule, the survivor count [5] was 0 of 6.
With `C[n+]1c(O)c(C(=O)CCl)n2cc([N+](=O)[O-])ccc21` the survivor count (T/C endpoint: mean survival time, dose: 100.0 mg/kg/injection, schedule: Q01DX009 (ip), vehicle: acetone) was 3 of 6, the survivor count (T/C endpoint: mean survival time, dose: 200.0 mg/kg/injection, schedule: Q01DX009 (ip), vehicle: acetone) was 2 of 6 and the survivor count [2] was 1 of 6.
